Assay results as given in article PMC10999543, “Identification of kinase modulators as host-directed therapeutics against intracellular methicillin-resistant Staphylococcus aureus” (Frontiers in Cellular and Infection Microbiology, 2024).
Like-named read-outs stand apart in the source and are kept apart here.

System: intracellular MRSA
Format: cell-based, Staphylococcus aureus
Settings: for %GFP+ rep 1 / %GFP+ rep 2 / %GFP+ rep 3: PKIS compound screen raw data; for %GFP+ rep 1 / %GFP+ rep 2 / %GFP+ rep 3 / z-scoreMRSA+ mean / z-scoreMRSA+ rep 1 / z-scoreMRSA+ rep 2 / z-scoreMRSA+ rep 3: MRSA-infected HeLa cells; for %GFP+ rep 1 / z-scoreMRSA+ rep 1: replicate 1; for %GFP+ rep 2 / z-scoreMRSA+ rep 2: replicate 2; for %GFP+ rep 3 / z-scoreMRSA+ rep 3: replicate 3; for z-scoreMRSA+ mean: mean of 3 replicates
Description: The cells were resuspended in cell culture medium without antibiotics, seeded with 10,000 cells/well into Costar flat-bottom 96-well plates (Corning, Amsterdam, the Netherlands), and were incubated overnight at 37°C/5% CO2. The next day, the bacteria were centrifuged at ≥1800 g for 15 min and resuspended in cold PBS + 5 mM ethylenediaminetetraacetic acid (EDTA). The number of CFUs present in the bacterial suspension was estimated from the optical density at 600 nm (OD600) by assuming 8x10^8 CFUs to be present in a bacterial suspension with OD600 = 1, based on prior titrations. The bacterial suspension was diluted in cell culture medium without antibiotics and added to the cells. Accuracy of the multiplicity of infection (MOI) was validated by plating serial dilutions of the MRSA inoculums on Difco TS agar plates (BD Biosciences). The calculated mean MOI throughout all experiments was 6.8 ± 4.6 (mean ± SD). Infected cells were centrifuged for 3 min at 150 g and incubated for 1 hour at 37°C/5% CO2. Next, the cells were incubated with fresh cell culture medium supplemented with 30 µg/ml gentamicin sulphate (Lonza BioWhittaker, Basel, Switzerland) for 15 min at 37°C/5% CO2 to kill residual extracellular bacteria. Infected cells were incubated overnight at 37°C/5% CO2 in cell culture medium in the presence of kinase inhibitors and 5 µg/ml gentamicin sulphate-containing medium to prevent the growth of extracellular bacteria. The solvent of the compounds, DMSO, was used at equal % v/v as a negative control. For the screen, each compound was tested in triplicate, on separate cell culture plates, resulting in triplicate values for each kinase inhibitor.
HeLa cells were harvested by trypsinization and fixed with 1% paraformaldehyde. Samples were measured on a FACSLyric with HTS extension (BD Biosciences). Flow cytometry data were analysed using FlowJo version 10 (TreeStar, Ashland, OR, USA). HeLa cells positive for GFP were gated to calculate the percentage of MRSA-infected cells. The cell count was used as surrogate readout of cell viability.
To identify potential “hit” compounds, the flow cytometry data were used to calculate standard z-scores using z = (x-μ)/σ – zneg, where x is total event count or the percent of GFP-positive cells from a single well, μ is the mean from wells of the plate, σ is the standard deviation of the plate and zneg is the mean z-score of the negative control of the plate (i.e., DMSO) ([Korbee et al., 2018]). To minimize the possibility that the presence of extreme values on a plate affected the z-scores, raw values that deviated two-fold from the negative controls were excluded when calculating plate means and standard deviations as used in the aforementioned formula. Compounds were considered a “hit” when z-scoreMRSA+ ≤ -2 and z-scoreHeLa ≥ -3 for cell count. In cases where compounds were screened twice, the average values were used to select hit compounds.

| Structure (SMILES) | %GFP+ rep 1 [%] | %GFP+ rep 2 [%] | %GFP+ rep 3 [%] | effect (Yes/No call from z-scoreMRSA+) | hit (Yes/No: effect without cell death) | z-scoreMRSA+ mean (compound screen) | z-scoreMRSA+ rep 1 (compound screen) | z-scoreMRSA+ rep 2 (compound screen) | z-scoreMRSA+ rep 3 (compound screen) | z-scoreMRSA+ mean (PKIS compound screen) | z-scoreMRSA+ rep 1 (PKIS compound screen) | z-scoreMRSA+ rep 2 (PKIS compound screen) | z-scoreMRSA+ rep 3 (PKIS compound screen) | hit (PKIS compound screen, Yes/No call (effect without cell death)) | effect (PKIS compound screen, Yes/No call on z-scoreMRSA+) |
| --- | --- | --- | --- | --- | --- | --- | --- | --- | --- | --- | --- | --- | --- | --- | --- |
| Cc1ccc(C)c(Oc2nccc(-c3c(-c4ccc(F)cc4)ncn3C3CCNCC3)n2)c1 [SB-284852-BT] | 16.8 | 17.7 | 18.3 | No | No | -0.60 | -0.53 | -0.47 | -0.80 |  |  |  |  |  |  |
| Cc1cc(C)cc(Oc2nccc(-c3c(-c4ccc(F)cc4)ncn3C3CCNCC3)n2)c1 [SB-284851-BT] | 13.8 | 15.4 | 15.3 |  |  |  |  |  |  | -1.20 | -1.29 | -0.94 | -1.37 | No | No |
